Consider 25 molecules from the supplement of paper PMC9549374.

Each structure is given as a SMILES string. Some of the results follow. No stated cut-off is given here; in the data, active = 2-fold of DMSO or more and inactive = the rest. Single values of this set are uncertain. Some low values are a fixed figure set by the source, not a measured ratio.

For this assay, the system named is CM7/1-hgem mouse ES cell-derived cardiomyocytes. The assay is described as follows: maximal number of mAG-hGem(1/110)-positive cardiomyocytes over 96 h, fold-change vs DMSO; higher = more cardiomyocyte cell cycle activity. The following applies: 1 µM; 96 (max over 12 h time points) h.
Regarding `COc1ccc2[nH]c([S+]([O-])Cc3ncc(C)c(OC)c3C)nc2n1` (stereo not given), the maximal number was inactive: 1.
The result for `C/C1=C\CC(C)(C)/C=C/CC2(C)OC2CC1` (stereo not given) reads inactive: 1.
As for `O=c1cc[nH]c(=O)[nH]1`, the figure is inactive: 1.
The result for `CCCCC[C@H](CC(=O)NO)C(=O)N[C@H](C(=O)N1CCC[C@H]1CO)C(C)C` reads inactive: 1; that for `COc1c(O)cc2oc3cc(O)c(CC=C(C)C)c(O)c3c(=O)c2c1CC=C(C)C` [alpha-MANGOSTIN], inactive: 1; that for `O=c1cc(-c2ccccc2)oc2cc(O)ccc12`, inactive: 1.
As for `COc1ccc(-c2coc3cc(O)ccc3c2=O)c(OC)c1`, the maximal number was inactive: 1.
As for `COc1ccc2c(c1)OC/C(=C\c1ccc(OC)c(O)c1)C2=O`, the figure is inactive: 1; as for `NCCCCC(=O)O`, inactive: 1; as for `O=C(/C=C/c1ccc(O)c(O)c1)O[C@@H]1C[C@](O)(C(=O)O)C[C@@H](O)[C@H]1O`, inactive: 1.
On to `CN1[C@@H]2CC[C@H]1C[C@@H](OC(=O)c1c[nH]c3ccccc13)C2`, for which the maximal number was inactive: 1.
The result for `Cc1cn([C@H]2C=C[C@@H](CO)O2)c(=O)[nH]c1=O` reads inactive: 1; that for `CC1=CC(=O)CC(C)(C)C1(O)/C=C/C(C)=C\C(=O)O` (mixture of isomers) [ABSCISIC ACID (cis,trans; +/-)], inactive: 0.5; that for `CC(=O)N[C@@H](CCC(N)=O)C(=O)O`, inactive: 1.
The result for `COc1c2ccoc2nc2c(OC)c(OCC(O)C(C)(C)O)ccc12` (stereo not given) reads inactive: 1.
As for `CC1=CC(=O)[C@H]2C(C)(C)CCC[C@]2(C)[C@@]1(O)CCc1ccoc1`, the figure is inactive: 1.
In the case of `CO[C@H]1C[C@H](O[C@H]2[C@H](C)[C@@H](O[C@@H]3O[C@H](C)C[C@H](N(C)C)[C@H]3OC(C)=O)[C@@H](C)C[C@@]3(CO3)C(=O)[C@H](C)[C@@H](OC(C)=O)[C@@H](C)[C@@H](C)OC(=O)[C@@H]2C)O[C@@H](C)[C@@H]1OC(C)=O`, the maximal number was inactive: 1.
The result for `COC(=O)CC1C(C)(C)C(OC(C)=O)[C@@H]2[C@@H](OC(C)=O)[C@]34O[C@@]2(O)[C@]1(C)C3CC[C@]1(C)C4=CC(=O)O[C@H]1c1ccoc1` (stereo not given in full) reads inactive: 1; that for `COc1cc2c(cc1OC)C(=O)OC2`, inactive: 1; that for `COC(=O)C[C@H]1C(C)(C)C(=O)[C@@H]2CC3C4=CC(=O)O[C@@H](c5ccoc5)[C@]4(C)CC[C@@H]3[C@@]1(C)C2=O` (stereo not given in full), inactive: 0.
Take `CCC(C)(C)c1ccc(CC(C)CN2C[C@@H](C)O[C@@H](C)C2)cc1` (stereo not given in full): the maximal number was inactive: 1.
The result for `Clc1ccc2c(c1)C(N1CCNCC1)=Nc1ccccc1O2` reads inactive: 1; that for `C[C@@H]1CC[C@@]2(OC1)O[C@H]1C[C@H]3[C@@H]4CC[C@H]5C[C@@H](O)CC[C@]5(C)[C@H]4CC[C@]3(C)[C@H]1[C@@H]2C`, inactive: 1; that for `COc1cc2cc3c4cc(OC)c(OC)cc4cc[n+]3c(C)c2cc1OC`, inactive: 1.
As for `CCCCC(CC)COC(=O)CC(C(=O)OCC(CC)CCCC)S(=O)(=O)O` (stereo not given), the figure is inactive: 1.
